Data on two molecules can be found in paper PMC3726778.

No constants are given. Whether binding was seen depends on the method and setting.

Test [1] deals with plakin domain of human periplakin (residues 131–871) (human) (UniProt O60437). As to the kind of experiment: AUC; sedimentation velocity, c(s) analysis (SEDFIT); 100 mM NaCl, 20 mM sodium phosphate pH 7.4, 20°C; three concentrations between 0.05 and 4 mg/ml (0.5–35 µM); 25,000 and 40,000 rpm; both purified.
Test [2] deals with plakin domain of human envoplakin (residues 144–891) (human) (UniProt Q92817). Described as above.

B1: plakin domain of human periplakin (residues 131–871) (domain or fragment, UniProt O60437 131-871)
chain: EVDPQVNWAALVEEKLDKLNNQSFGTDLPLVDHQVEEHNIFHNEVKAIGPHLAKDGDKEQNSELRAKYQKLLAASQARQQHLSSLQDYMQRCTNELYWLDQQAKGRMQYDWSDRNLDYPSRRRQYENFINRNLEAKEERINKLHSEGDQLLAAEHPGRNSIEAHMEAVHADWKEYLNLLICEESHLKYMEDYHQFHEDVKDAQELLRKVDSDLNQKYGPDFKDRYQIELLLRELDDQEKVLDKYEDVVQGLQKRGQQVVPLKYRRETPLKPIPVEALCDFEGEQGLISRGYSYTLQKNNGESWELMDSAGNKLIAPAVCFVIPPTDPEALALADSLGSQYRSVRQKAAGSKRTLQQRYEVLKTENPGDASDLQGRQLLAGLDKVASDLDRQEKAITGILRPPLEQGRAVQDSAERAKDLKNITNELLRIEPEKTRSTAEGEAFIQALPGSGTTPLLRTRVEDTNRKYEHLLQLLDLAQEKVDVANRLEKSLQQSWELLATHENHLNQDDTVPESSRVLDSKGQELAAMACELQAQKSLLGEVEQNLQAAKQCSSTLASRFQEHCPDLERQEAEVHKLGQRFNNLRQQVERRAQSLQSAKAAYEHFHRGHDHVLQFLVSIPSYEPQETDSLSQMETKLKNQKNLLDEIASREQEVQKICANSQQYQQAVKDYELEAEKLRSLLDLENGRRSHVSKRARLQSPATKVKEEEAALAAKFTEVYAINRQRLQNLEFALNLLRQQP
In the case of B1, in test [1], the binding entry is reported as “no binding (tested: 0.5–35 µM)”.

B2: plakin domain of human envoplakin (residues 144–891) (domain or fragment, UniProt Q92817 144-891)
chain: PDVGPRVDWARVLEQKQKQVCAGQYGPGMAELEQQIAEHNILQKEIDAYGQQLRSLVGPDAATIRSQYRDLLKAASWRGQSLGSLYTHLQGCTRQLSALAEQQRRILQQDWSDLMADPAGVRREYEHFKQHELLSQEQSVNQLEDDGERMVELRHPAVGPIQAHQEALKMEWQNFLNLCICQETQLQHVEDYRRFQEEADSVSQTLAKLNSNLDAKYSPAPGGPPGAPTELLQQLEAEEKRLAVTERATGDLQRRSRDVAPLPQRRNPPQQPLHVDSICDWDSGEVQLLQGERYKLVDNTDPHAWVVQGPGGETKRAPAACFCIPAPDPDAVARASRLASELQALKQKLATVQSRLKASAVESLRPSQQAPSGSDLANPQAQKLLTQMTRLDGDLGQIERQVLAWARAPLSRPTPLEDLEGRIHSHEGTAQRLQSLGTEKETAQKECEAFLSTRPVGPAALQLPVALNSVKNKFSDVQVLCSLYGEKAKAALDLERQIQDADRVIRGFEATLVQEAPIPAEPGALQERVSELQRQRRELLEQQTCVLRLHRALKASEHACAALQNNFQEFCQDLPRQQRQVRALTDRYHAVGDQLDLREKVVQDAALTYQQFKNCKDNLSSWLEHLPRSQVRPSDGPSQIAYKLQAQKRLTQEIQSRERDRATASHLSQALQAALQDYELQADTYRCSLEPTLAVSAPKRPRVAPLQESIQAQEKNLAKAYTEVAAAQQQLLQQLEFARKMLEKKELS
As for B2, the binding result in test [2] is “no binding (tested: 0.5–35 µM)”.
